Data as given in patent US20150315270A1 (CONSEJO NACIONAL DE INVESTIGATION CIENTIFICA, published 2015).
No constants are given. Whether binding was seen depends on the method and setting. Some binding calls cover weakened binding; strength is not graded here.

Molecular target: T1, human VEGF-B186 (human, UniProt P49765 22-207)
T1 construct: also called Vascular endothelial growth factor antigen B
T1 sequence: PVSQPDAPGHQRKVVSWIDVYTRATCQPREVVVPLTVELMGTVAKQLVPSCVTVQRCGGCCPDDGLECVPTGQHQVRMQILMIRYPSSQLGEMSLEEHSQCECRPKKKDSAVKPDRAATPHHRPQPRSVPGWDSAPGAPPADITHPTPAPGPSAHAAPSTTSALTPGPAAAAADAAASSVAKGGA
Experiment: SPR, Biacore T100

B1: mMcA-AB1-anti-VEGF-A (mouse monoclonal antibody A-AB1-anti-VEGF-A) (antibody, V domains shown)
VH: QVKLLESGPELKKPGETVKISCKASGYTFTNFGMNWVKQAPGKGLKWMGWINTNTGEPTYVDDFKGRFAFSLETSASSAYLQISNLNNEDTATYFCARYYGSTSVWYFDVWGAGTTVTVSS
VL: ELVMTQTPSSLSASLGDRVTITCRASQDIFNYLNWYQQKPDGPIKLLIYYSSRLHSGVPSRFSGSGSGTDYSLTISNLDREDIATYFCQQGFTLPWTFGGGTKLEIKR
notes: also called mMc-AB1-anti-VEGF-A; mouse AB1 antibody
For B1, the binding was “binds”.
